Measurements: paper PMC5450235, “Predicting the targeting of tail-anchored proteins to subcellular compartments in mammalian cells” (Journal of Cell Science, 2017)

Experiments:
Test in all cases: fluorescence polarisation; fluorescence anisotropy; FITC peptide at 6.7 nM, protein titrated (dilution series, factor 1.5); 25°C; 50 mM Tris-HCl pH 7.5, 250 mM NaCl, 0.5 mM TCEP with 0.67 mg/ml BSA, no detergent; 1:1 hyperbolic fit; both purified
[1] = molecular target: T1, FITC-labelled peptide ACBD5 WT (not stated (human genes cloned from HepG2 RNA))
T1 sequence (peptide, FITC on the N-terminus): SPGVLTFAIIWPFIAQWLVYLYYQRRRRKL

[2] = molecular target: T2, FITC-labelled peptide ACBD5 MUT2 (not stated (human genes cloned from HepG2 RNA))
T2 sequence (peptide, FITC on the N-terminus): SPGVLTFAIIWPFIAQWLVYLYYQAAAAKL

[3] = molecular target: T3, FITC-labelled peptide ACBD5 MUT1 (not stated (human genes cloned from HepG2 RNA))
T3 sequence (peptide, FITC on the N-terminus): T2 sequence (peptide, FITC on the N-terminus) with A25R, A27R

binding [1]: no binding | binding [2]: no binding | binding [3]: no binding
Substance: SurE

Where a chain is given by its changes, count along the chain named. These are yes or no findings as the source states them, for the method shown.
